# Experimental data from the supplement of paper PMC10338343.
# ± gives the standard deviation. The entries are a selection whose mix differs from that of the whole data set. The uncertainty is large for many entries.
# Test system: MIWI (PIWIL1) piRISC loaded with L1MC piRNA (30 nt)
# Experiment: pre-steady-state target cleavage rate (min^-1); MIWI and MILI are mouse PIWI proteins and EfPiwi is from a freshwater sponge; tags in brackets are library labels; higher = faster piRNA-guided slicing of the target
# Conditions: guide: L1MC piRNA 5'p-UAACUAAAUACUAUGCAAGCUGUAGGUCCU; auxiliary factor: 500 nM mouse GTSF1
# Summary of the method: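 Cleave-'n-Seq: 1 nM active affinity-purified piRISC with one synthetic guide and 0.1 nM transcribed, DNA-blocked target RNA library were mixed, with or without 500 nM GTSF1 partner protein, in HEPES–potassium acetate buffer at 33 °C for 0–8 or 0–960 min. Uncleaved targets were sequenced and normalised to depth and to weakly complementary targets, three trials were pooled, and k3 was capped at 0.0001 min^-1. The pre-steady-state cleavage rate was fitted […].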
row,Sequence,pre-steady-state target cleavage rate
1,UGGACGUACAGCUUGCAUAGUAUUUUGUUA,0.75 ± 0.055
2,AGGACGAACAGCUUGCAUAGUAUUUACAAA,0.245 ± 0.037
3,UCCUGGAUGUCGAUGCAUAGUAUUUAGUUA [g2:g17:cont:t1A],0.0169 ± 0.005
4,UGGACCAUGAGCUUGCAUAGUAUUUAGUAA,0.675 ± 0.045
5,UCCUGGAUGUGGUUGCAUUGUAUUUAGUUA,0.00195 ± 0.0067
6,AGGACCUACAGCUUGGUUAGUAUUUACAAA,0.0786 ± 0.021
7,UGGACCUAUAGCUUGCAUAGUAUUUAGUUA,1.23 ± 0.054
8,UCGACCUACACGCUUGCAUAGUAUUUAGUUA,1.23 ± 0.063
9,UGGACCUACAGCUUUCAUAGUAUUUAGUUA,0.593 ± 0.032
10,UCCACCUCCAGCUUGCAUAGUAUUUAGUUA,0.89 ± 0.033
11,AGGACCUAGUCCUUGCAUAGUAUUUACAAA,0.256 ± 0.046
12,UGGACCUACGAGCUUGCAUAGUAUUUAGUUA,0.657 ± 0.11
13,AGGAGCUACAGCUAGCAUAGUAUUUAGUUA,1.28 ± 0.076
14,UCCACCUACAGCUUGCAUACUAUAUAGUUA,0.178 ± 0.022
15,UGGACCUACACCUUGCUUAGUAUUUAGUUA,1.1 ± 0.062
16,UGGACCUACAGCUUGGAUAGUAUUUAGUAA,0.851 ± 0.062
17,UGAGACCUACAGCUUGCAUAGUAUUUAGUUA,1.49 ± 0.1
18,AGGACCUAGAGCUUGCAUAGUAUUUUCAAA,0.0396 ± 0.013
19,UCCUGGUACAGCUUGCAUAGGUAUUUAGUUA,0.00444 ± 0.006
20,UCGACCUUCAGCUUCCAUAGUAUUUAGUUA,0.0473 ± 0.011

row,Sequence,pre-steady-state target cleavage rate
1,UCCUGGUACAGCUUGCAUUCUAUUUAGUAA,0.0022 ± 0.0098
2,UGGAGCUACAGCUUCCAUAGUAUUUAGUUA,0.275 ± 0.047
3,AGGACCUACAGCCUGCAUAGUAUUUAGUUA,1.51 ± 0.063
4,UCCACCUUCAGGUUGCAUAGUAUUUAGUUA,0.817 ± 0.1
5,UGGACCUACAGCUUGCAUACAUUUUUCAAA,0.00119 ± 0.0057
6,UCGAGCUACAGCUUGCAUAGUAUUUAGAAA,0.407 ± 0.039
7,UGGACCAACAGCUUGCAUAGUAUUUAGUUA,1.35 ± 0.047
8,UCCUGGAUGUCCUUGCUUAGUAUAUAGUUA,0.00219 ± 0.0049
9,UCCACCAACAGCUUCCAUAGUAUUUAGUUA,0.0426 ± 0.015
10,UGGUCCUACAGCUUGCAAAGUAUUUAGUUA,1.13 ± 0.04
11,UCCACCUACAGCUUGCUUAGUAUAUAGUUA,0.357 ± 0.027
12,AGGACCUACACCUUGCAUAGUAUUAAGUUA,0.627 ± 0.054
13,UCGACCAUGAGCUUGCAUAGUAUUUAGUAA,0.804 ± 0.049
14,UGGACCUACCAGCUUGCAUAGUAUUUAGUUA,1.25 ± 0.1
15,AAGACCUACAGCUUGCAUAGUAUUUAGUUA,1.69 ± 0.062
16,UGGACCUACAGCUUCGUUAGUAUUUACAAA,0.00108 ± 0.0057
17,ACGACCUUCAGCUUGCAUAGUAUUUAGUUA,1.45 ± 0.042
18,UCGACCUACAGCUUGCAUAGUAUUUAGUUA [g2:g28:cont:t1A],1.56 ± 0.056
19,AGGACCUACAGCUAGCAUAGUAUUUAGUUA,1.16 ± 0.061
20,UCCACCUACAGCUUCGUUAGUAUUUAGAAA,0.00242 ± 0.0056

# Same assay, conditions: guide: L1MC piRNA 5'p-UAACUAAAUACUAUGCAAGCUGUAGGUCCU; auxiliary factor: none (no GTSF1)
row,Sequence,pre-steady-state target cleavage rate
1,UGGACGUACAGCUUGCAUAGUAUUUUGUUA,0.052 ± 0.009
2,AGGACGAACAGCUUGCAUAGUAUUUACAAA,0.00641 ± 0.0027
3,UCCUGGAUGUCGAUGCAUAGUAUUUAGUUA [g2:g17:cont:t1A],0.00189 ± 0.0033
4,UGGACCAUGAGCUUGCAUAGUAUUUAGUAA,0.0285 ± 0.0075
5,UCCUGGAUGUGGUUGCAUUGUAUUUAGUUA,0.0016 ± 0.0064
6,AGGACCUACAGCUUGGUUAGUAUUUACAAA,0.000943 ± 0.0052
7,UGGACCUAUAGCUUGCAUAGUAUUUAGUUA,0.0564 ± 0.011
8,UCGACCUACACGCUUGCAUAGUAUUUAGUUA,0.0454 ± 0.0074
9,UGGACCUACAGCUUUCAUAGUAUUUAGUUA,0.0286 ± 0.0052
10,UCCACCUCCAGCUUGCAUAGUAUUUAGUUA,0.0442 ± 0.0078
11,AGGACCUAGUCCUUGCAUAGUAUUUACAAA,0.00328 ± 0.0019
12,UGGACCUACGAGCUUGCAUAGUAUUUAGUUA,0.0557 ± 0.013
13,AGGAGCUACAGCUAGCAUAGUAUUUAGUUA,0.0359 ± 0.0079
14,UCCACCUACAGCUUGCAUACUAUAUAGUUA,0.0112 ± 0.003
15,UGGACCUACACCUUGCUUAGUAUUUAGUUA,0.0262 ± 0.0061
16,UGGACCUACAGCUUGGAUAGUAUUUAGUAA,0.0355 ± 0.006
17,UGAGACCUACAGCUUGCAUAGUAUUUAGUUA,0.0826 ± 0.015
18,AGGACCUAGAGCUUGCAUAGUAUUUUCAAA,0.00187 ± 0.0051
19,UCCUGGUACAGCUUGCAUAGGUAUUUAGUUA,0.000438 ± 0.014
20,UCGACCUUCAGCUUCCAUAGUAUUUAGUUA,0.00293 ± 0.0014

row,Sequence,pre-steady-state target cleavage rate
1,UCCUGGUACAGCUUGCAUUCUAUUUAGUAA,0.000703 ± 0.0056
2,UGGAGCUACAGCUUCCAUAGUAUUUAGUUA,0.00584 ± 0.0013
3,AGGACCUACAGCCUGCAUAGUAUUUAGUUA,0.0892 ± 0.017
4,UCCACCUUCAGGUUGCAUAGUAUUUAGUUA,0.0279 ± 0.0047
5,UGGACCUACAGCUUGCAUACAUUUUUCAAA,0.000209 ± 0.012
6,UCGAGCUACAGCUUGCAUAGUAUUUAGAAA,0.0061 ± 0.0023
7,UGGACCAACAGCUUGCAUAGUAUUUAGUUA,0.0769 ± 0.013
8,UCCUGGAUGUCCUUGCUUAGUAUAUAGUUA,0.00112 ± 0.0052
9,UCCACCAACAGCUUCCAUAGUAUUUAGUUA,0.00399 ± 0.0017
10,UGGUCCUACAGCUUGCAAAGUAUUUAGUUA,0.0413 ± 0.0067
11,UCCACCUACAGCUUGCUUAGUAUAUAGUUA,0.0111 ± 0.0025
12,AGGACCUACACCUUGCAUAGUAUUAAGUUA,0.0334 ± 0.0069
13,UCGACCAUGAGCUUGCAUAGUAUUUAGUAA,0.0343 ± 0.0083
14,UGGACCUACCAGCUUGCAUAGUAUUUAGUUA,0.0599 ± 0.013
15,AAGACCUACAGCUUGCAUAGUAUUUAGUUA,0.0921 ± 0.015
16,UGGACCUACAGCUUCGUUAGUAUUUACAAA,0.000239 ± 0.01
17,ACGACCUUCAGCUUGCAUAGUAUUUAGUUA,0.0921 ± 0.015
18,UCGACCUACAGCUUGCAUAGUAUUUAGUUA [g2:g28:cont:t1A],0.0936 ± 0.017
19,AGGACCUACAGCUAGCAUAGUAUUUAGUUA,0.0412 ± 0.0085
20,UCCACCUACAGCUUCGUUAGUAUUUAGAAA,0.000239 ± 0.012
